Laboratory results from paper PMC6359055.
These are yes or no findings as the source states them, for the method shown. In cells and extracts the contact can be indirect. Some entries that bind do so weakly or less than the wild type.

Amino acid sequences for entries named in this document (tags omitted).
UniProt O00506: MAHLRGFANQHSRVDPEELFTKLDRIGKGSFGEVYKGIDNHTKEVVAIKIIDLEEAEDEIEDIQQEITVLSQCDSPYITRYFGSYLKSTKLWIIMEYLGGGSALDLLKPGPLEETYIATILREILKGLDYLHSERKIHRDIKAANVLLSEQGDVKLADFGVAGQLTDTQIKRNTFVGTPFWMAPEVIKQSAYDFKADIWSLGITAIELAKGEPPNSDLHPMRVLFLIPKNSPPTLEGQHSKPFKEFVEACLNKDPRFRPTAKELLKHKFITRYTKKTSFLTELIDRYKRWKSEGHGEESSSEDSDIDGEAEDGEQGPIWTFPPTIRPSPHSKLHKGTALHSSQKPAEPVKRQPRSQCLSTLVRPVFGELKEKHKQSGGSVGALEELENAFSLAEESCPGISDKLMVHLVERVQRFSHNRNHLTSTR
UniProt P08047: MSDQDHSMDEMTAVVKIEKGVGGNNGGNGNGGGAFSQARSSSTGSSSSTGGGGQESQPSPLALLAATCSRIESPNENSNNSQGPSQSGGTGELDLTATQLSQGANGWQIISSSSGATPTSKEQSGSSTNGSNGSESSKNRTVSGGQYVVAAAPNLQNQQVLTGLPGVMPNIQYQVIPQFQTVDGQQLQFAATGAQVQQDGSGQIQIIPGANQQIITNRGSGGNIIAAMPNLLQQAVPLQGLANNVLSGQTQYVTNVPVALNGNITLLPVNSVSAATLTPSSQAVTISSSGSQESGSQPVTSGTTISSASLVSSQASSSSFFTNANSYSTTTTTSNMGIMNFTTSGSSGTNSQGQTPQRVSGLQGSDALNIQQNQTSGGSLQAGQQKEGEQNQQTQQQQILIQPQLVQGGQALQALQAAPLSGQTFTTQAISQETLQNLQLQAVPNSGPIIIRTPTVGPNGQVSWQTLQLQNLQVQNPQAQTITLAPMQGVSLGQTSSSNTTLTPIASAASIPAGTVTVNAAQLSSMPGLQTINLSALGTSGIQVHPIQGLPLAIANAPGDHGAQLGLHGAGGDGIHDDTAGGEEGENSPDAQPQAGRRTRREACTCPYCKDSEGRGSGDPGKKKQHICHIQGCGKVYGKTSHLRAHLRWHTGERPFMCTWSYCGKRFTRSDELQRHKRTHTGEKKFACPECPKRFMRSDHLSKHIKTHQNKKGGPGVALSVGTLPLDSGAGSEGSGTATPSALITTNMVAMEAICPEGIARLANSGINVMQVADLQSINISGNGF
UniProt P38936: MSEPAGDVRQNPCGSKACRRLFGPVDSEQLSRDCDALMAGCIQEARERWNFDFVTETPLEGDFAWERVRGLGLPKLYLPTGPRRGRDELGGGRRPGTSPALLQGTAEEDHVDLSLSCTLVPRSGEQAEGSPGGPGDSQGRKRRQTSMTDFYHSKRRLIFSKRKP

Tests used:
GST-hYSK1 (human) = GST-hYSK1 (human) (UniProt O00506); assay: pull-down; GST or GST-YSK1 bound to Sepharose beads incubated with in vitro translated 35S-Met-labeled p21; washed three times; 15% SDS-PAGE, autoradiography; only the target purified
HA-SP-1 = HA-SP-1 (UniProt P08047); assay: co-IP; lysates (200 ug) of transfected cells in NET-NL buffer (50 mM Tris pH 7.5, 5 mM EDTA, 150 mM NaCl, 1 mM DTT, 0.01% NP-40); immunoprecipitation with anti-hYSK1 or anti-SP-1 overnight at 4 C, protein A/G-agarose; western blot for Myc, V5, HA
V5-hYSK1 (human) = V5-hYSK1 (human) (UniProt O00506); assay: as above

Row | binding (GST-hYSK1 (human)) | binding (HA-SP-1) | binding (V5-hYSK1 (human)) | Substance
1 | binds |  |  | 35S-labeled p21^WAF1/Cip1 (from UniProt P38936 1-164)
2 |  | no binding |  | V5-hYSK1 (from UniProt O00506 1-426) (enzyme)
3 |  | binds | binds | Myc-p21^WAF1/Cip1 (from UniProt P38936 1-164)
4 |  |  | no binding | HA-SP-1 (from UniProt P08047 1-785)
